# Where a name gives a salt, the structure may show the parent alone. ± gives the standard deviation of the averaged measurements. The list shows a part of the results. Part of the spread comes from offsets between plates or batches.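 The cells are a mouse kidney inner medullary collecting duct line, silenced either for the ciliary gene Rpgrip1l or with a non-targeting control siRNA.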
# System: mIMCD3
# Assay: robust z score of cell number vs plate controls; higher = more cells (less cytotoxic)
# Conditions: 10 µM; 48 h; siRNA: siRpgrip1l
row,Compound,robust z score of cell number
1,C[N+](C)(C)CC[N+]1(C)Cc2c(Cl)c(Cl)c(Cl)c(Cl)c2C1 [Chlorisondamine diiodide],1.5 ± 3.6
2,Cn1cc(C2=C(c3ccc(Cl)cc3Cl)C(=O)NC2=O)c2ccccc21,-39.9 ± 40
3,c1ccc(C(NCCNC(c2ccccc2)c2ccccc2)c2ccccc2)cc1 [AMN 082 dihydrochloride],-29.8 ± 15
4,CN(CCc1ccc(Cl)c(Cl)c1)CC(O)COc1ccc(NS(C)(=O)=O)cc1 (configuration not stated),-24.6 ± 2
5,Oc1ccc(-c2nc3cc(O)cc(Br)c3o2)cc1,-28.2 ± 28
6,N[C@H]1CCN(O)C1=O,12.2 ± 14
7,CN(C)C(=O)C(CCN1CCC(O)(c2ccc(Cl)cc2)CC1)(c1ccccc1)c1ccccc1 [Loperamide hydrochloride],-53.6 ± 47
8,CCN(Cc1ccncc1)C(=O)C(CO)c1ccccc1 (configuration not stated) [Tropicamide],-3.41 ± 1.5
9,Nc1ncn([C@H]2C[C@H](O)[C@@H](CO)O2)c(=O)n1 [Decitabine],-26.2 ± 9.6
10,CCc1ccc(OCc2ccccc2C(=O)Nc2ccc3nc(C)cc(N)c3c2)cc1,-31.2 ± 10
11,Cc1c(OCC(F)(F)F)ccnc1C[S+]([O-])c1nc2ccccc2[nH]1 (configuration not stated) [Lansoprazole],-6.98 ± 2.1
12,CN1CCC[C@@H]1Cc1c[nH]c2ccc(CCS(=O)(=O)c3ccccc3)cc12 [Eletriptan hydrobromide],16.4 ± 17
13,Brc1c(NC2=NCCN2)ccc2nccnc12,-0.192 ± 2.3
14,CC1(CN2CCC(n3c(=O)[nH]c4ccccc43)CC2)OCc2ccccc2-n2cccc21 (configuration not stated),-22.9 ± 12
15,C[C@H](NC[C@H](O)CP(=O)(O)Cc1ccccc1)c1ccc(Cl)c(Cl)c1,-16.1 ± 9.6
16,COc1cccc(/C=N/N=C/c2cccc(OC)c2)c1,0.444 ± 1.2
17,O=C1CC2(CCCC2)CC(=O)N1CCNCC1COc2ccccc2O1 (configuration not stated),-52 ± 45
18,Cc1ccc2c(=O)c3ccccc3n(CCCN)c2c1C,-32.4 ± 10
19,COc1ccc2cccc(N3CCN(CCNC(=O)c4ccc(F)cc4)CC3)c2c1,-17.4 ± 17
20,Oc1ccc(C2CNCCc3c2cc(O)c(O)c3Cl)cc1 (configuration not stated) [Fenoldopam hydrochloride],-13.8 ± 12
21,N[C@@H](CC(=O)Nc1ccc(Oc2cc(F)c(F)cc2Br)cc1)C(=O)O,-2.16 ± 5
22,COC1CCC(C(=O)c2ccc3nc4c(cc3c2)CCCO4)CC1 (configuration not stated),-9.71 ± 5.2
23,C[C@@H](N)[C@H]1CC[C@H](C(=O)Nc2ccncc2)CC1,-13.7 ± 5.2
24,Nc1[nH]nc2nnc(-c3c(-c4ccccc4)nn4ccccc34)cc12,-9.6 ± 5.5

# Same assay, conditions: 10 µM; 48 h; siRNA: siScr
row,Compound,robust z score of cell number
1,OC(CN1CCN(c2cccc(Cl)c2)CC1)C(c1ccccc1)c1ccccc1 (configuration not stated),-21.6 ± 4.1
2,C[C@H](NC[C@H](O)CP(=O)(O)CC1CCCCC1)c1ccc(Cl)c(Cl)c1,1.63 ± 0.56
3,O=C(O)Cc1ccc(OCCNC[C@H](O)c2ccccc2)cc1 [ZD 2079 hydrochloride],-2.15 ± 5.2
4,COC(=O)C1=C(C)NC(C)=C([N+](=O)[O-])[C@H]1c1ccccc1C(F)(F)F,-6.28 ± 6.7
5,COc1ccc2[nH]c(C(=O)c3ccccc3)cc2c1,-41.5 ± 10
6,"COC(=O)/C=C/c1cc(O)ccc1O [Methyl 2,5-dihydroxycinnamate]",-124 ± 110
7,CC(C)NCC(O)COc1ccc(CCOCC2CC2)cc1 (configuration not stated) [Betaxolol hydrochloride],-3.75 ± 4.6
8,Cc1cc(I)ccc1Nc1c(C(=O)NOCC2CC2)cc(F)c(F)c1F,-141 ± 100
9,CC#C[C@]1(O)CC[C@H]2[C@@H]3CCC4=CC(=O)CCC4=C3[C@@H](c3ccc(N(C)C)cc3)C[C@@]21C [Mifepristone],-33.5 ± 8
10,COc1ccc2[nH]c([S+]([O-])Cc3ncc(C)c(OC)c3C)nc2c1 (configuration not stated) [Omeprazole],-18 ± 2.2
11,O=C(c1ccc(OCCN2CCCCC2)cc1)c1c(-c2ccc(O)cc2)sc2cc(O)ccc12 [Raloxifene hydrochloride],-27.6 ± 4.8
12,COc1cc2c(cc1C(F)(F)F)N(C(=O)Nc1cc(F)cc(-c3cccnc3)c1)CC2,-40.4 ± 9.6
13,CNCCC(Oc1ccc(C(F)(F)F)cc1)c1ccccc1 (configuration not stated) [Fluoxetine hydrochloride],-24.8 ± 13
14,N[C@@H](Cc1cc(-c2ccc(Cl)cc2Cl)cc(CP(=O)(O)O)c1O)C(=O)O,0.555 ± 3.5
15,C[N+](C)(C)CC[N+]1(C)Cc2c(Cl)c(Cl)c(Cl)c(Cl)c2C1 [Chlorisondamine diiodide],0.997 ± 0.072
16,Cn1cc(C2=C(c3ccc(Cl)cc3Cl)C(=O)NC2=O)c2ccccc21,-11.4 ± 9.1
17,c1ccc(C(NCCNC(c2ccccc2)c2ccccc2)c2ccccc2)cc1 [AMN 082 dihydrochloride],-27.1 ± 4.9
18,CN(CCc1ccc(Cl)c(Cl)c1)CC(O)COc1ccc(NS(C)(=O)=O)cc1 (configuration not stated),-21.8 ± 11
19,Oc1ccc(-c2nc3cc(O)cc(Br)c3o2)cc1,-12.7 ± 10

row,Compound,robust z score of cell number
1,N[C@H]1CCN(O)C1=O,-0.635 ± 3.5
2,CN(C)C(=O)C(CCN1CCC(O)(c2ccc(Cl)cc2)CC1)(c1ccccc1)c1ccccc1 [Loperamide hydrochloride],-46.4 ± 2.8
3,CCN(Cc1ccncc1)C(=O)C(CO)c1ccccc1 (configuration not stated) [Tropicamide],-1.31 ± 1.7
4,Nc1ncn([C@H]2C[C@H](O)[C@@H](CO)O2)c(=O)n1 [Decitabine],-115 ± 85
5,CCc1ccc(OCc2ccccc2C(=O)Nc2ccc3nc(C)cc(N)c3c2)cc1,-138 ± 100
6,Cc1c(OCC(F)(F)F)ccnc1C[S+]([O-])c1nc2ccccc2[nH]1 (configuration not stated) [Lansoprazole],-2.04 ± 2
7,CN1CCC[C@@H]1Cc1c[nH]c2ccc(CCS(=O)(=O)c3ccccc3)cc12 [Eletriptan hydrobromide],-3.22 ± 3.4
8,Brc1c(NC2=NCCN2)ccc2nccnc12,-4.58 ± 12
9,CC1(CN2CCC(n3c(=O)[nH]c4ccccc43)CC2)OCc2ccccc2-n2cccc21 (configuration not stated),-17.7 ± 0.19
10,C[C@H](NC[C@H](O)CP(=O)(O)Cc1ccccc1)c1ccc(Cl)c(Cl)c1,0.712 ± 0.73
11,COc1cccc(/C=N/N=C/c2cccc(OC)c2)c1,0.976 ± 4.4
12,O=C1CC2(CCCC2)CC(=O)N1CCNCC1COc2ccccc2O1 (configuration not stated),-41 ± 31
13,Cc1ccc2c(=O)c3ccccc3n(CCCN)c2c1C,-141 ± 110
14,COc1ccc2cccc(N3CCN(CCNC(=O)c4ccc(F)cc4)CC3)c2c1,-15.4 ± 5.2
15,Oc1ccc(C2CNCCc3c2cc(O)c(O)c3Cl)cc1 (configuration not stated) [Fenoldopam hydrochloride],-2.69 ± 1.6
16,N[C@@H](CC(=O)Nc1ccc(Oc2cc(F)c(F)cc2Br)cc1)C(=O)O,-23.4 ± 32
17,COC1CCC(C(=O)c2ccc3nc4c(cc3c2)CCCO4)CC1 (configuration not stated),-3.22 ± 0.3
18,C[C@@H](N)[C@H]1CC[C@H](C(=O)Nc2ccncc2)CC1,-22.3 ± 31
19,Nc1[nH]nc2nnc(-c3c(-c4ccccc4)nn4ccccc34)cc12,-12.7 ± 4.6

# — the supplement of paper PMC12009310
